Test results reported in patent US20110020786A1, “PEPTIDE DENDRIMERS: AFFINITY REAGENTS FOR BINDING NOROVIRUSES” (BAYLOR COLLEGE OF MEDICINE, priority 2007, published 2011).

Legend:
Test in all cases: phage ELISA: target coated at 10 µg/mL, amplified phage added, detection with anti-M13-HRP and ABTS at 405 nm
[1] = molecular target: alcohol dehydrogenase
[2] = molecular target: β-amylase
[3] = molecular target: carbonic anhydrase

Measured: binding

LGTKALSYSISI [5]
binds: [1] | [2] | [3]

AQHTLKKWPLLV [2]
binds: [1] | [2] | [3]

SVSVGMKPSPRP [1]
binds: [1] | [2] | [3]

No constants are given. Whether binding was seen depends on the method and setting. A result given as binding can be weak or reduced; the word gives no strength.
